Data as given in patent US9700547B2, “Use of 6-hydroxy-2-pyridones and derivatives thereof for preparing a pharmaceutical composition that acts by inhibiting the human uridine phosphorylase enzyme” (UNIÃO BRASILEIRA DE EDUCAÇÃO E ASSISTÊNCIA, MANTENEDORA DA …, priority 2013, dated 2017).
Some results were stated once for a whole list of compounds, not compound by compound.

By UniProt entry, the sequences of proteins in these tests, tags left out. Where a name states a change or a piece, a line headed by the entry shows the natural chain unless it says otherwise.
UniProt Q16831: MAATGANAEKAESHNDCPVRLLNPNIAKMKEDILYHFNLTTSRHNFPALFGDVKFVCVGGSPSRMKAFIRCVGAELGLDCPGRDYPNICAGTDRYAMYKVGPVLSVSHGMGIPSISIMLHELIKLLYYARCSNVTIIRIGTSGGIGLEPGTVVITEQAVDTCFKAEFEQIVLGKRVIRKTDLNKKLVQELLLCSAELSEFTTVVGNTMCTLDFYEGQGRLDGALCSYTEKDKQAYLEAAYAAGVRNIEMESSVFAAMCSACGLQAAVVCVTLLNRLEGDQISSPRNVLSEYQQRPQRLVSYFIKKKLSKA

Target: Human Phosphorylase Uridine 1 (hUP1) (Homo sapiens, UniProt Q16831)
Test: hUP1 enzymatic assay, inhibition at 1 μM (UV absorbance of uridine at 280 nm)
Format: biochemical
Settings: 1 μM compound, 37° C.
Procedure: The enzymatic activity of the hUP1 is performed through the enzymatic essay using one spectrophotometer UV/visible where the absorbance reduction of uridine in 280 nm, for 1 min and at 37° C. was monitored.
For determining which inhibitors would be selected for determining the inhibition constant (Ki), one cut point of 1 μM was stipulated, where only those compounds that would inhibit more than 60% of the initial activity of the enzyme would be selected for this type of analysis (Table 1). From all compounds tested, 7 molecules had its inhibition above 60% with the concentration of 1 μM (Compounds c1, c2, c3, c4, c6, c12, and c13). All essays described on this patent application were performed for these compounds and for benzil acyclo uridine (BAU), in order to perform a direct comparison of the results achieved with the better in vitro inhibitor of the hUP1 described (standard).

Row | Structure (SMILES) | Inhibition with 1 μM (%)
1 | Cc1cc(O)[nH]c(=O)c1C#N [c13] | more than 60%
2 | Cc1c(CNC(CO)CO)c(O)[nH]c(=O)c1C#N [c6] | more than 60%
